Measurements reported in PubChem BioAssay AID1259308 (NCATS, 2017)
The deposit covers about 59,000 reagents; below is a random part of them. In the full data, about 1,510 (2.6%) are marked active. 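Calls use total luciferase alone and ignore viability, so some active siRNAs may act by altering cell number.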 Entries without a mark were called inactive. Not all columns of the deposit are shown.

Test: 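Genes whose loss raises luciferase production in HEK293 cells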 (primary screen)
Cells: human HEK293 embryonic kidney cells stably expressing firefly luciferase (HEK-CMV-Luc2-Hygro)
Reagent: single siRNA against human genes, 0.8 pmol siRNA per well
Time to read-out: 72 h
Detection: 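Luciferase light (ONE-Glo) measured on one replicate plate set and viability (CellTiter-Glo) on the other, scaled to a negative control siRNA, with robust z-scores and luciferase per cell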
Direction: total luciferase, z-score and total luciferase, % of control: higher = more reporter protein produced
Call rule: 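Active when the median/MAD z-score for overall luciferase is greater than 3; a gene was taken forward for validation with new siRNAs if at least two of its three siRNAs passed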
Meaning of the calls: active = raised luciferase; inactive = no rise

After knock-down of CD34 (CD34 molecule) [SID160738996] the results were total luciferase, z-score 0.127; total luciferase, % of control 84.4. CD34 (CD34 molecule) [SID160739006] scored total luciferase, z-score -0.000858; total luciferase, % of control 81.9. CD34 (CD34 molecule) [SID160739016] scored total luciferase, z-score -0.348; total luciferase, % of control 75. LSP1 (lymphocyte specific protein 1) [SID160776747] showed total luciferase, z-score 0.798; total luciferase, % of control 97.8. Against LSP1 (lymphocyte specific protein 1) [SID160776748], the entry reads total luciferase, z-score -0.147; total luciferase, % of control 79. Against LSP1 (lymphocyte specific protein 1) [SID160776749] the deposit lists total luciferase, z-score 0.208; total luciferase, % of control 86.

After knock-down of DYNLT3 (dynein light chain Tctex-type 3) [SID160717861] the results were total luciferase, z-score 2.08; total luciferase, % of control 123. Silencing of DYNLT3 (dynein light chain Tctex-type 3) [SID160717862] resulted in: total luciferase, z-score -0.352; total luciferase, % of control 74.9. Depletion of DYNLT3 (dynein light chain Tctex-type 3) [SID160717863] gave: total luciferase, z-score -1.71; total luciferase, % of control 47.8. Depletion of PCDH11X (protocadherin 11 X-linked) [SID160738726] gave: total luciferase, z-score 3.35 (active); total luciferase, % of control 148. PCDH11X (protocadherin 11 X-linked) [SID160738727] scored total luciferase, z-score -0.443; total luciferase, % of control 73.1. With knock-down of PCDH11X (protocadherin 11 X-linked) [SID160738728], the screen gave total luciferase, z-score 0.0312; total luciferase, % of control 82.5.

Depletion of G2E3 (G2/M-phase specific E3 ubiquitin protein ligase) [SID160743955] came out at: total luciferase, z-score -1.07; total luciferase, % of control 60.6. After knock-down of G2E3 (G2/M-phase specific E3 ubiquitin protein ligase) [SID160743956], the screen gave total luciferase, z-score -0.831; total luciferase, % of control 65.4. G2E3 (G2/M-phase specific E3 ubiquitin protein ligase) [SID160743958] scored total luciferase, z-score -2.07; total luciferase, % of control 40.7. Against TPM4 (tropomyosin 4) [SID160718285], the entry reads total luciferase, z-score 0.463; total luciferase, % of control 91.1. Against TPM4 (tropomyosin 4) [SID160718286], the entry reads total luciferase, z-score -0.141; total luciferase, % of control 79.1. TPM4 (tropomyosin 4) [SID160718287] gave total luciferase, z-score 0.375; total luciferase, % of control 89.3.

Against AURKC (aurora kinase C) [SID160717491], the entry reads total luciferase, z-score 0.674; total luciferase, % of control 95.3. Silencing of AURKC (aurora kinase C) [SID160717492] came out at: total luciferase, z-score -0.0423; total luciferase, % of control 81. Depletion of AURKC (aurora kinase C) [SID160717493] gave: total luciferase, z-score -0.588; total luciferase, % of control 70.2.

Entries listed above called active (1):
PCDH11X (protocadherin 11 X-linked) [SID160738726]: total luciferase, z-score = 3.35 (active); total luciferase, % of control = 148
